## Percent effect of library compounds

Chains of the proteins cited; added tags and fusions are not shown. Residues count along the entry.
UniProt P9WFT3, whole entry: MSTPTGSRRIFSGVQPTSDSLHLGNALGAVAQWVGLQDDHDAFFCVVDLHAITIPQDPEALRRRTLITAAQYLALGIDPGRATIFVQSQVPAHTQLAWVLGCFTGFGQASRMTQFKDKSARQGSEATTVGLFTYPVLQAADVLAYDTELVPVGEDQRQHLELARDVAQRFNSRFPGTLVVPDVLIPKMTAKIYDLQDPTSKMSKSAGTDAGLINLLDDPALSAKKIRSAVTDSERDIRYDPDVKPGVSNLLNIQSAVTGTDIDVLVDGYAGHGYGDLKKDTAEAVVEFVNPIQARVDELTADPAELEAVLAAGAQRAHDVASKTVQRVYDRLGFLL
UniProt I6X8D2, whole entry: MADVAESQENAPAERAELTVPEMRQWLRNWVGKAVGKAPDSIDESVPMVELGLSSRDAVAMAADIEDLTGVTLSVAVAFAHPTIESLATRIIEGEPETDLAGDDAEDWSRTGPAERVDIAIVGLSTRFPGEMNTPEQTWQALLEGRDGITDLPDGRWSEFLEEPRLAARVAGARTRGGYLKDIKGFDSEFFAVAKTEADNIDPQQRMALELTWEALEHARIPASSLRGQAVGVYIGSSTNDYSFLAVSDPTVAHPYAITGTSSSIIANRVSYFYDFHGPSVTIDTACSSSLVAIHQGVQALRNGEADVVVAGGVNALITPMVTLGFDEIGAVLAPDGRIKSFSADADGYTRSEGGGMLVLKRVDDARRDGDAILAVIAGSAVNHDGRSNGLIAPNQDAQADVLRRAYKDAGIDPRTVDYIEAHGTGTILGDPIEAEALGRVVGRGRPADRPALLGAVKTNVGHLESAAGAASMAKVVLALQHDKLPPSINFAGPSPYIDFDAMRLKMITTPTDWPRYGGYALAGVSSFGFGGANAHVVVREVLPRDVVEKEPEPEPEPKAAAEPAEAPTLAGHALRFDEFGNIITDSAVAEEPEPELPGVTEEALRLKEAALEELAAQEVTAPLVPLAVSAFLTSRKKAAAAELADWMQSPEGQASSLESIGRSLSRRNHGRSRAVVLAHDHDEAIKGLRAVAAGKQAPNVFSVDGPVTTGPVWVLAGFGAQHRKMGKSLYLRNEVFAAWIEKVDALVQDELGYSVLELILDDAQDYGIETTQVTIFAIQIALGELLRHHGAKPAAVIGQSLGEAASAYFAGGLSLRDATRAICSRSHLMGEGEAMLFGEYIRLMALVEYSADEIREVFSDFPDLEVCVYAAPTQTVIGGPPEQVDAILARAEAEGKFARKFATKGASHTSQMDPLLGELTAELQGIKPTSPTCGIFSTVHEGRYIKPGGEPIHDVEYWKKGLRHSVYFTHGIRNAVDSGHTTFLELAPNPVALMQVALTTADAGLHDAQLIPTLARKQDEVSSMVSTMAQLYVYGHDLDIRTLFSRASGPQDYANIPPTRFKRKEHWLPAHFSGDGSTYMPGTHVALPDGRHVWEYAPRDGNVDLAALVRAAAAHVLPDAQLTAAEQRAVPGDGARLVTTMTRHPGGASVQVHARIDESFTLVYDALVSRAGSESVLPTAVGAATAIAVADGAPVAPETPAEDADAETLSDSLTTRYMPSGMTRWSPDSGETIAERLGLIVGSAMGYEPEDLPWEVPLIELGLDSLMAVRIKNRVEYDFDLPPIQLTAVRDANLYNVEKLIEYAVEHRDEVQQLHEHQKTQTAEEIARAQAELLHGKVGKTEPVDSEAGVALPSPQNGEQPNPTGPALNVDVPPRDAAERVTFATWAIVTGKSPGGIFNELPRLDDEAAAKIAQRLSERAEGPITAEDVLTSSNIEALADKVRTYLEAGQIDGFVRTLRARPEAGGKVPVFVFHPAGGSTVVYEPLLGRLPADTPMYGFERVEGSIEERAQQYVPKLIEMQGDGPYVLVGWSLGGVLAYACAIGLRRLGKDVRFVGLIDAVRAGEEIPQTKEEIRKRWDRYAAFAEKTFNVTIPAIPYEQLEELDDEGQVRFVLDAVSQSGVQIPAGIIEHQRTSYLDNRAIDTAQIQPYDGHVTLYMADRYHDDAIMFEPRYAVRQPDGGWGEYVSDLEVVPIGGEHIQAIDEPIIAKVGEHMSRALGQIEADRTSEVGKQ
UniProt Q4DA54, 1-478: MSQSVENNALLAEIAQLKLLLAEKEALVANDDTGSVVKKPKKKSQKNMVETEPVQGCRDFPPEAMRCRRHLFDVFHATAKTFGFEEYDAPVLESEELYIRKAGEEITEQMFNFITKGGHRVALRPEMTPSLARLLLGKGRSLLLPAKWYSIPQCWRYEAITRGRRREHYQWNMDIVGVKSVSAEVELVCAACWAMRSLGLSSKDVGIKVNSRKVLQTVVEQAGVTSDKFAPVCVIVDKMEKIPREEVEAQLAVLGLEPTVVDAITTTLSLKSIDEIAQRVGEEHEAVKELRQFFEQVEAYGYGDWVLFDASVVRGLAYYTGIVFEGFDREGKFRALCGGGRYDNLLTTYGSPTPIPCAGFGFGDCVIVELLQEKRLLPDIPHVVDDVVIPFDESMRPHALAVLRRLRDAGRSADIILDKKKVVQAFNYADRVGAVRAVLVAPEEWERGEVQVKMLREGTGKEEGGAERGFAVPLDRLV

Measurements from “University of Dundee, Small-Polar-MMV Screening Library” (2021), ChEMBL document CHEMBL3988442.

A: 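Tryptophan-tRNA ligase, Mycobacterium tuberculosis (UniProt P9WFT3). Enzyme assay of tryptophanyl-tRNA synthetase; the read-out is not stated. Compounds at 10 µM. Higher most likely means stronger inhibition; the record gives no direction and few retests gave an IC50. About 65,000 compounds were tested under these conditions; 0.098% (about 64) showed 50% or more at least once.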
B: 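Cell assay of Leishmania donovani living inside macrophages; the read-out is not stated. Tested at 30 µM. Higher reads as stronger inhibition (inferred: compounds with an IC50 in retests scored well above the rest). Of about 69,000 compounds tested this way, about 1,000 (1.5%) reached 50% or more in at least one test.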
C: 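Polyketide synthase Pks13, Mycobacterium tuberculosis (UniProt I6X8D2). Enzyme assay of the thioesterase domain of polyketide synthase 13; the read-out is not stated. Compounds at 30 µM. Higher reads as stronger inhibition (inferred from which compounds were picked for retests). About 67,000 compounds were tested under these conditions; 0.46% (about 300) showed 50% or more at least once.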
D: 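Enzyme assay of histidyl-tRNA synthetase; the read-out is not stated. Target: Histidine-tRNA ligase, Trypanosoma cruzi CL Brener (UniProt Q4DA54). Concentration: 30 µM. The record gives no direction; compounds that gave an IC50 in retests scored well above the rest, so higher reads as stronger inhibition. About 69,000 compounds were tested under these conditions; 0.045% (about 31) showed 50% or more at least once.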

The filed quantity is “Percent Effect” (%).
How 0% and 100% were set is not recorded. Most values in the screen are low, and negative values occur.
This is an unselected part of the compounds tested.
Two or more numbers in one place are separate tests of the same structure; such repeats can differ widely.

SMILES: Cc1noc(C)c1CCC(=O)NCC1(O)CCCN(c2ccccn2)C1 (centres undefined)
A: -5.21
B: 10.29
C: 9.519
D: 10.85

SMILES: CN(C)c1ncc(-c2cncn2CCc2ccc3c(c2)OCCO3)cn1
A: 0.3524
C: -3.398
D: 8.046

SMILES: O=c1c(NCCOCCO)c(N2CCN(c3ccccc3)CC2)c1=O
A: -2.113
B: -0.2706 & 12.06
C: 8.117
D: 4.878

SMILES: CS(=O)(=O)c1ncc(CN2CCN3CCCC3C2)n1CC1CCCCC1 (centres undefined)
A: 1.939
B: -16.26
C: -16.7
D: 6.349

SMILES: Cc1cc(NC(=O)CN2CCCC2c2noc(C(C)C)n2)on1 (centres undefined)
A: -6.377
B: 7.102
C: -12.34
D: 1.695

SMILES: CCOC(=O)COc1nc(CC(C)C)c2c(c1C#N)CCC2
A: -1.634
B: -31.08 & 4.062
C: 26.47
D: -3.614

SMILES: [H][C@@]12CS(=O)(=O)C[C@]1([H])N(C(=O)NCCc1ccc(OC)cc1)CCN2C
B: -23.3

SMILES: Cc1ccc(S(=O)(=O)NC2CCC(=O)NC2)cc1Br (centres undefined)
A: 3.047
B: 12.71
C: -22.42
D: 0

SMILES: Cc1cn2c(n1)CCC(NC(=O)c1oc(Br)cc1C)C2 (centres undefined)
A: -0.05959
B: 33.37
C: -12.35
D: 5.085

SMILES: CC(=O)NCc1nnc2n1CCN(Cc1cccs1)C2.O=C(O)C(F)(F)F
B: 2.359

SMILES: CCC(=O)NC1CCCN(Cc2ccc(-n3ccnc3)cc2)C1 (centres undefined)
A: 1.521
B: -11.82
C: 4.767
D: 6.897

SMILES: O=C(CSc1nccc(-c2ccc3c(c2)OCO3)n1)N1CCOCC1
B: 9.79
C: 26.72
D: 8.092

SMILES: CC(=O)Nc1nc(C(=O)N2CCCC2c2ccc(Br)cc2)cs1 (centres undefined)
A: -0.9085
B: 0.1835
C: -4.702
D: 5.187

SMILES: CSC(C)(C)CNC(=O)NC(c1nnc2n1CCC2)C(C)C (centres undefined)
A: -2.905
B: 23.29
C: -13.48
D: 1.345

SMILES: Cc1cc(C(=O)N2C[C@@H]3COC[C@]3(CN(C)C)C2)sc1C
A: 4.167
C: -25.53
D: -22.09

SMILES: CC(=O)N1CCC(NC(=O)c2cc(Cl)ccc2O)CC1
A: 1.615
B: 4.228
C: 95.85
D: 0

SMILES: O=C(NCCSc1ccccc1)[C@H]1CNC[C@@H](C(=O)N2CCOCC2)C1
A: -1.449
B: -23.16
C: -20.31
D: 7.2

SMILES: O=C(Nc1ccccc1)N1C(CN2CCOCC2)[C@]2(O)CC[C@H]1CC2 (some centres undefined)
C: 14.13
D: 8.989

SMILES: CCc1nccn1CC(=O)N1C[C@H]2CC[C@@H]1CN(c1ncccn1)C2
A: -1.043
C: -17.33
D: 5.464

SMILES: CCCc1nnc(NC(C)c2ccc(F)cc2)o1 (centres undefined)
A: 0.07468
B: 8.582
C: 1.528
D: 0

SMILES: CCC(C)N(Cc1cccnc1)C(=O)CCSC (centres undefined)
A: -3.311
B: 11.51
C: 19.39
D: 2.941

SMILES: CC(C)CN1CCc2[nH]nc(C(=O)N3CCCC3)c2C1
A: 5.805
C: -49.62
D: -5.155

SMILES: COc1ccccc1C(C#N)NC(=O)c1cccc2c1oc(=O)n2C (centres undefined)
A: -3.185
B: 19.48
C: -21.64
D: -2.128

SMILES: CC1CN(Cc2cccc(CN)c2)CCO1 (centres undefined)
A: -0.3631
B: 28.45
C: 6.742
D: 5.455

SMILES: CC(C)C[C@H](NC(=O)N1CCC(Cc2ccccc2)CC1)C(=O)O
A: -1.627
B: -15.91
C: -1.098
D: -4.969

Some entries from above, unchanged:

Result for Cc1noc(C)c1CCC(=O)NCC1(O)CCCN(c2ccccn2)C1 (centres undefined) was A: -5.21%; B: 10.29%; C: 9.519%; D: 10.85%.
Result for [H][C@@]12CS(=O)(=O)C[C@]1([H])N(C(=O)NCCc1ccc(OC)cc1)CCN2C was B: -23.3%.